Compound in the experiment: COc1ccc(Cn2ccc3cc(C)c(C(=O)NO)cc32)cc1
Nature of the experiment: dose-dependent thermal stabilisation call (2D-TPP, DLPTP, 10% FDR) (binary (1 = stabilised)); higher = stabilised by the compound. The settings on record: system: HL-60 intact cells; concentration range 0.04-10 µM. Here is the method: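 2D thermal proteome profiling in intact HL-60 cells treated with BRD-3811 (0, 0.04, 0.29, 2, 10 uM) for 90 min at 37 C, then heated 3 min at one of 12 temperatures (42-63.9 C). Soluble protein was quantified by TMT10 MS. The value is the DLPTP call of the paper: dose-dependent thermal stabilisation over all temperatures at 10% FDR (F-test of a dose-response against a flat model); one experiment, one call per tested protein.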

Amino acid sequences for entries named in this document (tags omitted). A change or cut given only in a name is not applied to a line headed by its entry.
UniProt Q15853: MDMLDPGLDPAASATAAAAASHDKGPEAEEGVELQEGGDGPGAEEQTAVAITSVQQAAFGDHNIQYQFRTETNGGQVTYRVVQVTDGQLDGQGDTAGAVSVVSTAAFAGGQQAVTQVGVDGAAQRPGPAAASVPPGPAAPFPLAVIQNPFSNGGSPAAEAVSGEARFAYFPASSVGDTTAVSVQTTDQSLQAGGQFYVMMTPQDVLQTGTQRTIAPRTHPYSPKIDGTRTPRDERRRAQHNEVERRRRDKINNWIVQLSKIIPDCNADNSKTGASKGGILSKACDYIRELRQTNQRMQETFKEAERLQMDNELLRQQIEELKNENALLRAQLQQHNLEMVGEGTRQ
UniProt O75717: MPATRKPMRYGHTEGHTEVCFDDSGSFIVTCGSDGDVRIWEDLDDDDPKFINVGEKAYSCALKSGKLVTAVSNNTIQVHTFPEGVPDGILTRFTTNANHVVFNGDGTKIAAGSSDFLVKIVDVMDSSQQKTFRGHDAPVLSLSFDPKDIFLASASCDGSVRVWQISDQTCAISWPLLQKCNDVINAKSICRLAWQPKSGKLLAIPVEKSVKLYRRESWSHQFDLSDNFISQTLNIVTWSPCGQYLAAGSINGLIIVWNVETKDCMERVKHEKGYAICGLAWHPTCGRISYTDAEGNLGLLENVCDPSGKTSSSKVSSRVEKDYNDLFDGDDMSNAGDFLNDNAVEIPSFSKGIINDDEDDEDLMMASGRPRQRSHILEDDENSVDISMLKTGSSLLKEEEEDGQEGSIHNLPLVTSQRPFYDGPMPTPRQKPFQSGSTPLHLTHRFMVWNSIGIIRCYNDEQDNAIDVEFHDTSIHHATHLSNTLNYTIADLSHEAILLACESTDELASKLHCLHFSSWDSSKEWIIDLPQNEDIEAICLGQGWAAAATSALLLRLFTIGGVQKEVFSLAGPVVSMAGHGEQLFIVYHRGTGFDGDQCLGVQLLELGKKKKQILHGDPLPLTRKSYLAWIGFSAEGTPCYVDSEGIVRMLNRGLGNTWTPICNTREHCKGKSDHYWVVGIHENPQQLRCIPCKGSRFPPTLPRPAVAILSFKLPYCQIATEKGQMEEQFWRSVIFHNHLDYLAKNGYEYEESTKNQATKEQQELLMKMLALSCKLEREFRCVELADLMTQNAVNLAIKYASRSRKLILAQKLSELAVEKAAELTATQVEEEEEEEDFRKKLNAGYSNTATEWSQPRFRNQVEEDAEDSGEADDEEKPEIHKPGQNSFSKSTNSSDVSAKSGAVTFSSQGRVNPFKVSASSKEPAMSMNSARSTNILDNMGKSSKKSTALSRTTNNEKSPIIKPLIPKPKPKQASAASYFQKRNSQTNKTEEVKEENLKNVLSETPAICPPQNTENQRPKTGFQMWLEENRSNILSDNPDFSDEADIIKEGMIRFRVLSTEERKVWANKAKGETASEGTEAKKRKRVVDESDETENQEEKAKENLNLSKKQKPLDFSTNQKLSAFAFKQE
UniProt Q9HBM0: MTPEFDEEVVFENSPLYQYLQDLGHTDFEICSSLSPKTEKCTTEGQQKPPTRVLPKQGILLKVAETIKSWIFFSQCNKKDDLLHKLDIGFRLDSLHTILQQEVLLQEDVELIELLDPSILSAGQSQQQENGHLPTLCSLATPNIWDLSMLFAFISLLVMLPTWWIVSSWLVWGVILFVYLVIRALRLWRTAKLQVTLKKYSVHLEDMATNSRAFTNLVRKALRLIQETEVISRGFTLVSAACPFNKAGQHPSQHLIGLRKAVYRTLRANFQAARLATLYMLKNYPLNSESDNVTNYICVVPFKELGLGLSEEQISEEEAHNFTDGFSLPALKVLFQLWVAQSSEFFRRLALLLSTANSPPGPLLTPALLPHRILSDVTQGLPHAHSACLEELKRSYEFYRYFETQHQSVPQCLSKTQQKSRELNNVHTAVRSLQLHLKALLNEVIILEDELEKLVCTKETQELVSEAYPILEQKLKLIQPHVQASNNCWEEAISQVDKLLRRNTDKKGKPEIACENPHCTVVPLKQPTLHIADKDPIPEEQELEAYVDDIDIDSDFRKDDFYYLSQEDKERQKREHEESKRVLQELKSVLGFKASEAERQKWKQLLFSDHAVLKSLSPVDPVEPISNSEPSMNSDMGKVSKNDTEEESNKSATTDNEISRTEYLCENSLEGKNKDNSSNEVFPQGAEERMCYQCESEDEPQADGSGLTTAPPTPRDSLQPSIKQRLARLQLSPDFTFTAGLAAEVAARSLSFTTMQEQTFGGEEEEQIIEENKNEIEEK
UniProt Q9UK41: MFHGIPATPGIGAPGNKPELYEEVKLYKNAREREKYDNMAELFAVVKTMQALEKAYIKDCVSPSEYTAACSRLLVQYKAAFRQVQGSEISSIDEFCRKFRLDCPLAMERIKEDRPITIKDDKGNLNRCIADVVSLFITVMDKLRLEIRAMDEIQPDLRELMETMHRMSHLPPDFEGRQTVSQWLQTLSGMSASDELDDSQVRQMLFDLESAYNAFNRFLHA
UniProt Q86VN1: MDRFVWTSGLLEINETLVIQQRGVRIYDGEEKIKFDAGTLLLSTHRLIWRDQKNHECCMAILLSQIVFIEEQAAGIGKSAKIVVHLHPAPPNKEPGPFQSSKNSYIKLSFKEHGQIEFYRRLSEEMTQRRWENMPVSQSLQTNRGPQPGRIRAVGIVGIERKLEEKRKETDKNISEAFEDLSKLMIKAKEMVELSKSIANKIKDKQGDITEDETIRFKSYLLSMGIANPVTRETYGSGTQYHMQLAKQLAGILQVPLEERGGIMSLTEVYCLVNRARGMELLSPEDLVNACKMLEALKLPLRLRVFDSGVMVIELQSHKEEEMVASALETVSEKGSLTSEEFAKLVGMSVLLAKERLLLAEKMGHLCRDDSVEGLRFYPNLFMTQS
UniProt Q96JH7: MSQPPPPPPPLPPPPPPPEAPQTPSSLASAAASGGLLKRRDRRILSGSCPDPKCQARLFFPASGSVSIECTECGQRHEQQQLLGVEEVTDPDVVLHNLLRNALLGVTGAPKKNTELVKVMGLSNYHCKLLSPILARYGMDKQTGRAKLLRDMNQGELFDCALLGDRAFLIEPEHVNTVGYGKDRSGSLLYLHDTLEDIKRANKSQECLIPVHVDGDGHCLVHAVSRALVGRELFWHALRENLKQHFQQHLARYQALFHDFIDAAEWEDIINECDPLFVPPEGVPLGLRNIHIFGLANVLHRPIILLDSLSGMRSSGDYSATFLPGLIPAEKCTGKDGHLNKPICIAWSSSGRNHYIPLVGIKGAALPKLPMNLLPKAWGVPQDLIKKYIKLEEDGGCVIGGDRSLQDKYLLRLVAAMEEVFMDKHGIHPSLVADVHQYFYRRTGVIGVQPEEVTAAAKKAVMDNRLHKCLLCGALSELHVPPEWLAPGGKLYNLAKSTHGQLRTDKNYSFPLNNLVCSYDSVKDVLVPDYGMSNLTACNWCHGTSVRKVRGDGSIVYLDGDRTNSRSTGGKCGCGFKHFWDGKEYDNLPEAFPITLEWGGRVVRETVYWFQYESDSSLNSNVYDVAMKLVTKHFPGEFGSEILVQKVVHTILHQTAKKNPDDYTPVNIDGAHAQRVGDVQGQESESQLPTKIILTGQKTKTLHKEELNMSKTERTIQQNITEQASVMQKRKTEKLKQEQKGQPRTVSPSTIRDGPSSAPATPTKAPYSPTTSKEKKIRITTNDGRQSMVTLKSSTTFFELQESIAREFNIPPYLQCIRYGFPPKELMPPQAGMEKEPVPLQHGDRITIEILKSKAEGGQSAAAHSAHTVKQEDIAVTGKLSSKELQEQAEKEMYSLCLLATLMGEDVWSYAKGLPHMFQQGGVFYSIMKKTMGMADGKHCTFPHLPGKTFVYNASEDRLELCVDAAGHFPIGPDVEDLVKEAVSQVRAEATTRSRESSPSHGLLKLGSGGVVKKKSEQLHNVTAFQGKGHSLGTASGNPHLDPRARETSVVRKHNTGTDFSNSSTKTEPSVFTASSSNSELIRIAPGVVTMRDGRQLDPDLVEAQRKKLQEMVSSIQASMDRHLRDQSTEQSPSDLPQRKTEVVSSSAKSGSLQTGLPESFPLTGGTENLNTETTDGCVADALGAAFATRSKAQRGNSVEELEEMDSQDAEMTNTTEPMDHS
UniProt Q9UPT9: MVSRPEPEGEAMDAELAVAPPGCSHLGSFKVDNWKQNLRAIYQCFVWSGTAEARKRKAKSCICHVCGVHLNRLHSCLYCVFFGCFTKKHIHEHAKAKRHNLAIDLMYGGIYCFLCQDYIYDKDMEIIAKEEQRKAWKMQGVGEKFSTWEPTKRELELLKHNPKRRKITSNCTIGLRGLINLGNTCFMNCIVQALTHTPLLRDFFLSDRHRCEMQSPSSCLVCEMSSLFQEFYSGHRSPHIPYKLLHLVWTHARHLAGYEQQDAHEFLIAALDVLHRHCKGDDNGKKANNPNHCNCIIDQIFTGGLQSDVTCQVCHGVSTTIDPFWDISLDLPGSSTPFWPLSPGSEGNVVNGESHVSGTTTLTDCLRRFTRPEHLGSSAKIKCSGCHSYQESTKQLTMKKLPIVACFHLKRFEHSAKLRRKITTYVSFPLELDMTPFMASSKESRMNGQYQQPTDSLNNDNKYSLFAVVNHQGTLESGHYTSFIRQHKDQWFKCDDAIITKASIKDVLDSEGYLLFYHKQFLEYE
UniProt Q9BSJ2, whole entry: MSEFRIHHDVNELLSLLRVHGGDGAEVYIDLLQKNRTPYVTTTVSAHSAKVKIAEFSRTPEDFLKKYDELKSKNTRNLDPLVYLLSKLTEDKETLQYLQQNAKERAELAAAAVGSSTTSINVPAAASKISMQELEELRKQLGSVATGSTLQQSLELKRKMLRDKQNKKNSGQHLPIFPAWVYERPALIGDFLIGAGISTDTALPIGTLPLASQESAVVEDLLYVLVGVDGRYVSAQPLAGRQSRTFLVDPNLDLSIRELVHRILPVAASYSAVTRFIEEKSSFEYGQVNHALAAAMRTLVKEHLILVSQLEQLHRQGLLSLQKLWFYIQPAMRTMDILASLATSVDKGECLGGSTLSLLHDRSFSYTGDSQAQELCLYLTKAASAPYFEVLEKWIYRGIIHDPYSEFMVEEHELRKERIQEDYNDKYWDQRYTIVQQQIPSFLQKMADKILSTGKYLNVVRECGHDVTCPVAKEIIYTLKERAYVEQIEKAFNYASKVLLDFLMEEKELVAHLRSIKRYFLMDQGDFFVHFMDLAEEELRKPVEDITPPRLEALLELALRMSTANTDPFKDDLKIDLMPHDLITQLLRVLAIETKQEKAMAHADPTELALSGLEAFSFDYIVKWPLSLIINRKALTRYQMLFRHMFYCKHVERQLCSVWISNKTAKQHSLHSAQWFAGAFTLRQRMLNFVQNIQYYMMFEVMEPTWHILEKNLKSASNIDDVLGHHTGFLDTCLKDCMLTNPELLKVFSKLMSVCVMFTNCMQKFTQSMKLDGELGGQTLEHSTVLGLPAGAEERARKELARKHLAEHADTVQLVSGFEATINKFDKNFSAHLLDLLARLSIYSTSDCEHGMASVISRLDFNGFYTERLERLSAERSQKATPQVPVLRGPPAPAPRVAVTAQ
UniProt Q70J99: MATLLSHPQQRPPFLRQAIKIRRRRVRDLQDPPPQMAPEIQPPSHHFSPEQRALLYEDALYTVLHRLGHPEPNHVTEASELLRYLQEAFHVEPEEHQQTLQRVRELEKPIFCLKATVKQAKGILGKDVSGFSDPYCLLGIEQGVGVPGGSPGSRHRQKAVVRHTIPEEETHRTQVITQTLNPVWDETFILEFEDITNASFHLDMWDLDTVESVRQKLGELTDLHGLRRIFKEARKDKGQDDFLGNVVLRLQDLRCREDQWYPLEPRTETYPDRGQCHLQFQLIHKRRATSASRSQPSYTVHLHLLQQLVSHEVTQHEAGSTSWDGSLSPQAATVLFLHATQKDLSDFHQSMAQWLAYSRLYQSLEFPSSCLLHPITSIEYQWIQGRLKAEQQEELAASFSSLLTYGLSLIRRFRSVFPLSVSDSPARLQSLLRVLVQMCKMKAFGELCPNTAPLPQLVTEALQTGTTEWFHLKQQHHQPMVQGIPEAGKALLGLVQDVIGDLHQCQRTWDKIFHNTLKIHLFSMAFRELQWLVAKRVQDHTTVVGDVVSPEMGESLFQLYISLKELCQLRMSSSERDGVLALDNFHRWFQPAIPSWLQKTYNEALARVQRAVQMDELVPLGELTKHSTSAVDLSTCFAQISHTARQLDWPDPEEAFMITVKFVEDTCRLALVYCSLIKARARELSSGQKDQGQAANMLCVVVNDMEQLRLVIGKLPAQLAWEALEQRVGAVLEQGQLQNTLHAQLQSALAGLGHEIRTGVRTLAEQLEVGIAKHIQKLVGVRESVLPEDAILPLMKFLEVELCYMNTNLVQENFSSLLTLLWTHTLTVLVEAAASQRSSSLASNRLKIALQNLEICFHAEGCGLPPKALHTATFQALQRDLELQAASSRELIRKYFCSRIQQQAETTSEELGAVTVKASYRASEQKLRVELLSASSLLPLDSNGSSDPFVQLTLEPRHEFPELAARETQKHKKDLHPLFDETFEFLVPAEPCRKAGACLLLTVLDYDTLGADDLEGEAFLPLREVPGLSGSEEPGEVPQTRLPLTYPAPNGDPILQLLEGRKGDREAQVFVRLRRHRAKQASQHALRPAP

This note sets out measurements from the supplement of paper PMC7666118.

This is one part of the list.

For UTP18 (UniProt Q9Y5J1), the “dose-dependent thermal stabilisation call” value is inactive: 0.
The result for USF1 (UniProt P22415) reads inactive: 0; that for WBSCR16 (UniProt Q96I51), inactive: 0; that for UTP23 (UniProt Q9BRU9), inactive: 0.
As for USP10 (UniProt Q14694), the figure is inactive: 0.
As for WBSCR22 (UniProt O43709), the figure is inactive: 0.
For UBE2CBP (UniProt Q7Z6J8), the “dose-dependent thermal stabilisation call” value is inactive: 0.
The result for USF2 (UniProt Q15853) reads inactive: 0.
On to UBAP2L (UniProt Q14157), for which the “dose-dependent thermal stabilisation call” value was inactive: 0.
As to WDHD1 (UniProt O75717), the “dose-dependent thermal stabilisation call” value is inactive: 0.
The result for UBA3 (UniProt Q8TBC4) reads inactive: 0; that for USMG5 (UniProt Q96IX5), inactive: 0.
The result for TYMP (UniProt P19971) reads inactive: 0; that for TYMS (UniProt P04818), inactive: 0; that for VEZT (UniProt Q9HBM0), inactive: 0.
The result for UNC84B (UniProt Q9UH99) reads inactive: 0; that for VPS28 (UniProt Q9UK41), inactive: 0.
With U2AF2 (UniProt P26368), the “dose-dependent thermal stabilisation call” value is inactive: 0.
As for VPS11 (UniProt Q9H270), the figure is inactive: 0.
As for VPS36 (UniProt Q86VN1), the figure is inactive: 0; as for VEZF1 (UniProt Q14119), inactive: 0.
The result for VCPIP1 (UniProt Q96JH7) reads inactive: 0.
For the target USP24 (UniProt Q9UPU5), the “dose-dependent thermal stabilisation call” value was inactive: 0.
The result for VCL (UniProt P18206) reads inactive: 0; that for VAMP8 (UniProt Q9BV40), inactive: 0.
Turning to UTP14C (UniProt Q5TAP6), the “dose-dependent thermal stabilisation call” value was inactive: 0.
As for USP22 (UniProt Q9UPT9), the figure is inactive: 0.
As for TUBGCP2 (UniProt Q9BSJ2), the figure is inactive: 0.
In the case of WAPAL (UniProt Q7Z5K2), the “dose-dependent thermal stabilisation call” value is inactive: 0.
As to UBE2J1 (UniProt Q9Y385), the “dose-dependent thermal stabilisation call” value is inactive: 0.
Turning to UPF3B (UniProt Q9BZI7), the “dose-dependent thermal stabilisation call” value was inactive: 0.
As for UNC13D (UniProt Q70J99), the figure is inactive: 0.
As for TXLNA (UniProt P40222), the figure is inactive: 0; as for USE1 (UniProt Q9NZ43), inactive: 0.
The result for UNC45A (UniProt Q9H3U1) reads inactive: 0.
As for TXNDC16 (UniProt Q9P2K2), the “dose-dependent thermal stabilisation call” value is inactive: 0.
